Assay [1] addresses T1, Slx5 (SUMO-targeted ubiquitin ligase) (budding yeast) (UniProt P32828).
T1 sequence: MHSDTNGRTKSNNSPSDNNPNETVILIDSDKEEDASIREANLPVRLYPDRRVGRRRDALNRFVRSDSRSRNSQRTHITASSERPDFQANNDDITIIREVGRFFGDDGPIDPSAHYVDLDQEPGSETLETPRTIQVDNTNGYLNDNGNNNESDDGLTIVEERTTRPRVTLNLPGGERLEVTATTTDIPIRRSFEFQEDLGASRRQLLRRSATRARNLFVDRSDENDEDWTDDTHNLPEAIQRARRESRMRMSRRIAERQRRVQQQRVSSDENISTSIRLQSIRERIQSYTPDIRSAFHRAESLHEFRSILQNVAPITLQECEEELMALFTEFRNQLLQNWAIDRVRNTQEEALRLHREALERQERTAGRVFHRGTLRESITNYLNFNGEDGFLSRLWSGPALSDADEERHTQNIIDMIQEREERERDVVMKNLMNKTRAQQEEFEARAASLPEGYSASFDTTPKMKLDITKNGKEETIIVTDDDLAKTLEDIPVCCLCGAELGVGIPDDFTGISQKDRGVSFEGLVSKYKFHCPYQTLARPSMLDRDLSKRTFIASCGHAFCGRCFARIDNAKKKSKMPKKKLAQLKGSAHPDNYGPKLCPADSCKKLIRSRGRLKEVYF
Nature of the assay: two-hybrid.

Assay [2] concerns the target Slx5^ΔSIM (budding yeast) (UniProt P32828). Nature of the assay: two-hybrid.

These are yes or no findings as the source states them, for the method shown. For some assays here: A result given as binding can be weak or reduced; the word gives no strength.

Consider Cin8-5R (budding yeast), for which, in assay [1], the binding entry is “binds”.

B1: Cin8 (yeast kinesin-5) (protein, UniProt P27895 1-1000)
chain: MPAENQNTGQDRSSNSISKNGNSQVGCHTVPNEELNITVAVRCRGRNEREISMKSSVVVNVPDITGSKEISINTTGDTGITAQMNAKRYTVDKVFGPGASQDLIFDEVAGPLFQDFIKGYNCTVLVYGMTSTGKTYTMTGDEKLYNGELSDAAGIIPRVLLKLFDTLELQQNDYVVKCSFIELYNEELKDLLDSNSNGSSNTGFDGQFMKKLRIFDSSTANNTTSNSASSSRSNSRNSSPRSLNDLTPKAALLRKRLRTKSLPNTIKQQYQQQQAVNSRNNSSSNSGSTTNNASSNTNTNNGQRSSMAPNDQTNGIYIQNLQEFHITNAMEGLNLLQKGLKHRQVASTKMNDFSSRSHTIFTITLYKKHQDELFRISKMNLVDLAGSENINRSGALNQRAKEAGSINQSLLTLGRVINALVDKSGHIPFRESKLTRLLQDSLGGNTKTALIATISPAKVTSEETCSTLEYASKAKNIKNKPQLGSFIMKDILVKNITMELAKIKSDLLSTKSKEGIYMSQDHYKNLNSDLESYKNEVQECKREIESLTSKNALLVKDKLKSKETIQSQNCQIESLKTTIDHLRAQLDKQHKTEIEISDFNNKLQKLTEVMQMALHDYKKRELDLNQKFEMHITKEIKKLKSTLFLQLNTMQQESILQETNIQPNLDMIKNEVLTLMRTMQEKAELMYKDCVKKILNESPKFFNVVIEKIDIIRVDFQKFYKNIAENLSDISEENNNMKQYLKNHFFKNNHQELLNRHVDSTYENIEKRTNEFVENFKKVLNDHLDENKKLIMQNLTTATSAVIDQEMDLFEPKRVKWENSFDLINDCDSMNNEFYNSMAATLSQIKSTVDTSSNSMNESISVMKGQVEESENAISLLKNNTKFNDQFEQLINKHNMLKDNIKNSITSTHSHITNVDDIYNTIENIMKNYGNKENATKDEMIENILKEIPNLSKKMPLRLSNINSNSVQSVISPKKHAIEDENKSSENVDNEGSRKMLKIE
For the molecule B1, the binding result in assay [2] is “no binding”.

The record behind these values is paper doi:10.1101/2025.11.10.687237.
